Drawing on article PMC7974539, this text covers binding for 2 molecules.

Protein sequences, listed by entry. Tags and fused reporters are not part of them.
UniProt Q93009: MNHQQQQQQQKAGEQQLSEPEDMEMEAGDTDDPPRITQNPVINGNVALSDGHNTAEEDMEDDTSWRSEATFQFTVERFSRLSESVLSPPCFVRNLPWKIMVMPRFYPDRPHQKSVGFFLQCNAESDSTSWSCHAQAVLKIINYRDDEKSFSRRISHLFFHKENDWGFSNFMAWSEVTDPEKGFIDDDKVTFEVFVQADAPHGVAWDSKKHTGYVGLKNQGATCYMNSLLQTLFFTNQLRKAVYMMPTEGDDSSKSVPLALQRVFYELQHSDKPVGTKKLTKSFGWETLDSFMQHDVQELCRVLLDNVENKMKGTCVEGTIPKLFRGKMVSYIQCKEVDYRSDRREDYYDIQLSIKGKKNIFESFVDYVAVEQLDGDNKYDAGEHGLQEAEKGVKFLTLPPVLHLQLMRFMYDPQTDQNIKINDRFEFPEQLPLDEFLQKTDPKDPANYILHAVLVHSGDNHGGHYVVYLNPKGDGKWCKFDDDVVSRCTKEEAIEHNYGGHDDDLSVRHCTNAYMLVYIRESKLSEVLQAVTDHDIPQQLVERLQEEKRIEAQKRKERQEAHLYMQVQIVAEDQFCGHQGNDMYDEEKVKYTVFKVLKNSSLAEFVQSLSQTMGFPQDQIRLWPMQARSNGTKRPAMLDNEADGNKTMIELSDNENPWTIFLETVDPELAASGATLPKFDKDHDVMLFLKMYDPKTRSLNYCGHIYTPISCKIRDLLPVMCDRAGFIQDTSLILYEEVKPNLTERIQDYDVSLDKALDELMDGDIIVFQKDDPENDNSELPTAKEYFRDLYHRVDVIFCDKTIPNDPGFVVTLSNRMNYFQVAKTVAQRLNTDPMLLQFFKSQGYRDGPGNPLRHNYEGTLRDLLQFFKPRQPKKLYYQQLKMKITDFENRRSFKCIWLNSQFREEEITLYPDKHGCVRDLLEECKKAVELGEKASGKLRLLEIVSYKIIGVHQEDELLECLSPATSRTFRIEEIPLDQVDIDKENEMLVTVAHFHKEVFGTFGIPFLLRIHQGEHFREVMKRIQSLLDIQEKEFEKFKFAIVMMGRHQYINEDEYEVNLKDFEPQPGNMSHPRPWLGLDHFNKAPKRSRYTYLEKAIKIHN
UniProt Q4VSI4: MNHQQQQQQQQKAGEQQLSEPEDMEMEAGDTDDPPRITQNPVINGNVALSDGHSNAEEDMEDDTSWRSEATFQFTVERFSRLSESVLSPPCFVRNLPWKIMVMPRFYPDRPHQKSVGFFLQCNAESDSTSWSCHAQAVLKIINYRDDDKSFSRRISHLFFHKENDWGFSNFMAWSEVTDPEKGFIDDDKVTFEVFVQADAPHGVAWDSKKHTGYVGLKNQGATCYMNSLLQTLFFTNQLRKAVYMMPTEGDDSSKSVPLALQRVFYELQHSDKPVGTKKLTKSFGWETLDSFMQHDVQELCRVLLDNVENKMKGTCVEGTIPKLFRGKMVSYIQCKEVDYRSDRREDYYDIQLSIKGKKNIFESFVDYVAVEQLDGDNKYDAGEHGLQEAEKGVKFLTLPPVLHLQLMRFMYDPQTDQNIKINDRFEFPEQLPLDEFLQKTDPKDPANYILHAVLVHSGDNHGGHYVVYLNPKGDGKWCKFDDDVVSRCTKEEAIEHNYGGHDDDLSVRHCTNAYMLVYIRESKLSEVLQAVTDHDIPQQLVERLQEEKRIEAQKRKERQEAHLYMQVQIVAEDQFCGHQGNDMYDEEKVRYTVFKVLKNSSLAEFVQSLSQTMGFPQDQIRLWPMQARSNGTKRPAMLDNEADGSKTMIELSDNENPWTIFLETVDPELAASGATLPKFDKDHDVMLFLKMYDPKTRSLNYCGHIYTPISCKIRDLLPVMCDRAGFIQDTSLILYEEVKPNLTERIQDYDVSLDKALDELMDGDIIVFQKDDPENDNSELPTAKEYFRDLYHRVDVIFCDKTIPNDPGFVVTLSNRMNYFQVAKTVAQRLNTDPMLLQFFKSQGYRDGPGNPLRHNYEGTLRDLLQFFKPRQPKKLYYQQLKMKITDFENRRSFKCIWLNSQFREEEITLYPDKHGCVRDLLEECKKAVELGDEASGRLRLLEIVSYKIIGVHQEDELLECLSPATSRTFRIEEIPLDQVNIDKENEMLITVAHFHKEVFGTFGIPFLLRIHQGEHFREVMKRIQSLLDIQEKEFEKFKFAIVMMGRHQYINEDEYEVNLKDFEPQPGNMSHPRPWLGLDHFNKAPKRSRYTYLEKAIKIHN

Results are given in words; binding and its absence hold for the method and conditions named. In cells and extracts the contact can be indirect. Some entries that bind do so weakly or less than the wild type.

The target in assay [1] is T1, NEK2, endogenous in GH3 and MMQ cells (rat (endogenous in GH3 and MMQ)) (UniProt G3V6L2).
T1 sequence: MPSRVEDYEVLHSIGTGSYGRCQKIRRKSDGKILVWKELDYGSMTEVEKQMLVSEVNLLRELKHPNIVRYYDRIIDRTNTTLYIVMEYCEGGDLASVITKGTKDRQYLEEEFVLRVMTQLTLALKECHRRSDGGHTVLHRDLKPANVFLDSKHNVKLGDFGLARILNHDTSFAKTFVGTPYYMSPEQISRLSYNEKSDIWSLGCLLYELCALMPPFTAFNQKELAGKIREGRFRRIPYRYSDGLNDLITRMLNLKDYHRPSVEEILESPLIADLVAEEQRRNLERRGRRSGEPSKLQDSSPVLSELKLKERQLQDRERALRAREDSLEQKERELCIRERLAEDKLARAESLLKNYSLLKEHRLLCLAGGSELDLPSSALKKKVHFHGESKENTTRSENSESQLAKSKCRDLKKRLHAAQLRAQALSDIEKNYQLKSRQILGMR
The assay can be described thus: co-IP; endogenous proteins; NEK2 immunoprecipitated from GH3 and MMQ cells with anti-NEK2 or IgG antibody.

The target in assay [2] is USP7 (ubiquitin-specific peptidase 7), transfected in HEK293T cells (UniProt Q93009). The assay can be described thus: co-IP; transiently transfected HEK293T cells; lysate subjected to IP with anti-FLAG M2 affinity resin overnight at 4 °C, eluted with 3x Flag-peptide; immunoblotting. (In general: A western blot detects proteins with antibodies after separation by electrophoresis.)

For “USP7, endogenous in GH3 and MMQ cells (from UniProt Q4VSI4 1-1103) (enzyme)”, the binding entry in assay [1] is on record as “binds”.

B1: NEK2 (never in mitosis-related kinase 2) in transiently transfected HEK293T cells (enzyme, UniProt P51955 1-445)
chain: MPSRAEDYEVLYTIGTGSYGRCQKIRRKSDGKILVWKELDYGSMTEAEKQMLVSEVNLLRELKHPNIVRYYDRIIDRTNTTLYIVMEYCEGGDLASVITKGTKERQYLDEEFVLRVMTQLTLALKECHRRSDGGHTVLHRDLKPANVFLDGKQNVKLGDFGLARILNHDTSFAKTFVGTPYYMSPEQMNRMSYNEKSDIWSLGCLLYELCALMPPFTAFSQKELAGKIREGKFRRIPYRYSDELNEIITRMLNLKDYHRPSVEEILENPLIADLVADEQRRNLERRGRQLGEPEKSQDSSPVLSELKLKEIQLQERERALKAREERLEQKEQELCVRERLAEDKLARAENLLKNYSLLKERKFLSLASNPELLNLPSSVIKKKVHFSGESKENIMRSENSESQLTSKSKCKDLKKRLHAAQLRAQALSDIEKNYQLKSRQILGMR
Turning to B1, in assay [2], the binding result was “binds”.
